{"source": "paper PMC4340280", "binders": {"B1": {"name": "BACE457, the pancreatic isoform of human β-secretase (protein, UniProt P56817-3 46-457)", "chain": "ETDEEPEEPGRRGSFVEMVDNLRGKSGQGYYVEMTVGSPPQTLNILVDTGSSNFAVGAAPHPFLHRYYQRQLSSTYRDLRKGVYVPYTQGKWEGELGTDLPDDSLEPFFDSLVKQTHVPNLFSLQLCGAGFPLNQSEVLASVGGSMIIGGIDHSLYTGSLWYTPIRREWYYEVIIVRVEINGQDLKMDCKEYNYDKSIVDSGTTNLRLPKKVFEAAVKSIKAASSTEKFPDGFWLGEQLVCWQAGTTPWNIFPVISLYLMGEVTNQSFRITILPQQYLRPVEDVATSQDDCYKFAISQSSTGTVMGAVIMEGFYVVFDRARKRIGFAVSACHVHDEFRTAAVEGPFVTLDMEDCGYNIPQTDESTLMTIAYVMAAICALFMLPLCLMVCQWRCLRCLRQQHDDFADDISLLK"}}, "key": {"[1]": {"target": "T1, mouse EDEM1 fused to an hemagglutinin (HA) tag (mouse) (UniProt Q925U4)", "T1 sequence": "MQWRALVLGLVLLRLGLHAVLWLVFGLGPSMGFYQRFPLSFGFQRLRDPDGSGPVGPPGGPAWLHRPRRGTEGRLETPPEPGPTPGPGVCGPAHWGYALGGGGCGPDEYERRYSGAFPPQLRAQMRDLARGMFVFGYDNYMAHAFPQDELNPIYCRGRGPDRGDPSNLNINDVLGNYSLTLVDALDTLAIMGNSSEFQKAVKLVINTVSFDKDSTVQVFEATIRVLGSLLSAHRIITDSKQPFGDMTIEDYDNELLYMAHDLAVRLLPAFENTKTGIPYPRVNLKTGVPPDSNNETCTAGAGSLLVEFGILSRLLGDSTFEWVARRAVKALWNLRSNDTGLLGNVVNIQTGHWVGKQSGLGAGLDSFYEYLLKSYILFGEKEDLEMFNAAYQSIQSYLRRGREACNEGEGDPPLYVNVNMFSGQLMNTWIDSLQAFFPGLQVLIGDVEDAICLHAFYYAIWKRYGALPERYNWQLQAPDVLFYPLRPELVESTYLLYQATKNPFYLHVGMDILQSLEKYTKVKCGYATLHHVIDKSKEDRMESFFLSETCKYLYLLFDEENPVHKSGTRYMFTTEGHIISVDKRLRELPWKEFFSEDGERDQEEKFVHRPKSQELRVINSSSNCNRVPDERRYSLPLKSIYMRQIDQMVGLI", "test": "co-IP"}, "[2]": {"target": "T2, mouse EDEM2 fused to an hemagglutinin (HA) tag (mouse) (UniProt Q8BJT9)", "T2 sequence": "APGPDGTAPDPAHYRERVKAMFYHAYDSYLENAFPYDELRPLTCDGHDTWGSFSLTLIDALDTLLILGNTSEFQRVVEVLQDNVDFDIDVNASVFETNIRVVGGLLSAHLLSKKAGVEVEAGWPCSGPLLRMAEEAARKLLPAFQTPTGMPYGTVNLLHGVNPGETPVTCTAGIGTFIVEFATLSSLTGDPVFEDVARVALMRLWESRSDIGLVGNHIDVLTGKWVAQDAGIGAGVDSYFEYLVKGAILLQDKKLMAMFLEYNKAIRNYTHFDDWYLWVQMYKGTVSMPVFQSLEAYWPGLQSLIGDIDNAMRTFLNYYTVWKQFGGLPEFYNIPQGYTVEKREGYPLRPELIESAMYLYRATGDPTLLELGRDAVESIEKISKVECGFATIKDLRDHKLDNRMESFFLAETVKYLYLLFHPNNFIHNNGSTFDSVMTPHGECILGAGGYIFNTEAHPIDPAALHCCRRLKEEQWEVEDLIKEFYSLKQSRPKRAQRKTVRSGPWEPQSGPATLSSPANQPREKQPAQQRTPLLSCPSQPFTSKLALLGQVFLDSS", "test": "co-IP"}}, "note": "Results are given in words; binding and its absence hold for the method and conditions named. Binding seen in cells or lysates may run through a third protein. Some results given as binding are weak or reduced against the parent protein; the word gives no strength. Where a sequence is shown, tags or fusion partners need not be part of it.", "data": [{"binder": "B1", "values": [{"measurement": "binding", "setting": "[1]", "value": "binds"}, {"measurement": "binding", "setting": "[2]", "value": "binds"}]}]}
